{"source": "patent US20050085419A1", "about": "“Anti-growth factor receptor avidin fusion proteins as universal vectors for drug delivery” (The Regents of the University of California, priority 1999, published 2005)", "origin": "cited, not measured here", "settings": "after 60 min"}
{"smiles": "CN1CC[C@]23c4c5ccc(O)c4O[C@H]2[C@@H](O)C=C[C@H]3[C@H]1C5", "note": "[morphine]", "values": [{"measurement": "brain uptake", "result": 0.081, "unit": "% ID/g"}]}
